# In PubChem BioAssay AID2685 (National Center for Advancing Translational Sciences (NCATS), 2010):
# Hit rate of the full screen: of about 320,000 compounds, about 2,100 (0.66%) were called active. Inconclusive means that the source gave no clear call. Such entries were picked first, then a sample of the others. Calls come from the whole dose curve; as a rule, active = well fitted inhibition curve with a large enough effect in the signal ratio, with a control signal flat (not every such curve was filed as active); inconclusive = small, poorly fitted or top-dose-only effect, or effect the other way, or a change in a side signal; inactive = flat fitted curve, though single readings scatter; the % refers to the signal ratio. Where the call is inconclusive, the potency comes from a doubtful curve fit.
# Test: qHTS Assay for Lipid Storage Modulators in Drosophila S3 Cells
# Settings: BODIPY lipid droplet fluorescence, 18-24 h, cells fed with added oleic acid; lipid storage change, negative = inhibition: at 46.1 µM (top of the series) unless noted
# Summary of the method: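 Drosophila S3 cells loaded with oleic acid (400 uM, as added) and compounds at several concentrations; lipid droplets imaged by 488-nm laser-scanning cytometry, 500–530 nm intensity and object ratio to cell channel. Percent activity normalized to 20 uM Triacsin C.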
# % is set by controls: 0 for no effect and ±100 for the full control effect; potency is the fitted concentration of half-maximal effect.
Structure (SMILES),Potency,"lipid storage change, negative = inhibition"
Cc1nc(Nc2ccc(Cl)cc2)c(C#N)c(=O)[nH]1,"inconclusive: 29.1 µM [activator, single point]",–
CN[C@@H]1CC[C@H](c2ccc(Cl)c(Cl)c2)c2ccccc21,–,inconclusive: -21.9%
COCCNC(=O)CN1CCOc2ccccc21,"inconclusive: 3.66 µM [activator, single point]",–
CN1/C(=C\C(=O)C[n+]2ccc(C(=O)c3ccccc3)cc2)C(C)(C)c2ccccc21,–,inconclusive: -14.3%
CCOC(=O)[C@H]1[C@H]2COc3ccc(C)cc3[C@@H]2N2C(=O)[C@@H](CO)NC(=O)[C@@]12C,"inconclusive: 4.11 µM [falling, full curve, poor fit]",–
CN1CCN(C(=O)c2ccccc2NC(=O)c2ccccc2)CC1,"inconclusive: 4.61 µM [activator, partial curve]",–
CC(CNC(=O)c1ccc(C(C)(C)C)cc1)CN(C)C (stereo unspecified),–,inconclusive: 2.33%
COc1ccc(-c2ccc(/C=C3/C(=N)N4C(C)=CSC4=NC3=O)o2)c([N+](=O)[O-])c1,–,inconclusive: -104%
Cc1ccccc1CN1C(=O)C(C)S/C1=N/N=C/c1ccco1 (stereo unspecified),–,inconclusive: 32.2%
CC(=O)N1CCN(c2ccc(NC(=O)c3ccccc3)cc2)CC1,–,inconclusive: 23.7%
CCCCn1c(N)c(N(CCOC)C(=O)COC(=O)CCOc2ccc(C)cc2)c(=O)[nH]c1=O,"inconclusive: 1.46 µM [falling, full curve, poor fit]",–
COc1ccc(N2CCN(C(=O)Cn3cnc4sc(C)c(S(=O)(=O)N5CCOCC5)c4c3=O)CC2)cc1,"inconclusive: 0.206 µM [activator, full curve, poor fit]",–
COc1ccc2cc3cc(C(=O)NCCN4CCc5ccccc5C4)oc3nc2c1,"inconclusive: 20.6 µM [falling, single point]",–
Cc1ccccc1C(=O)Nc1cccc(NC(=O)c2ccc(F)cc2)c1,–,inconclusive: -2.77%
COc1cccc(/C=C/C(=O)OCC(=O)c2c(N)n(C)c(=O)n(C)c2=O)c1,–,inconclusive: 14.7%
CCCC(=O)NC(c1ccco1)c1c(O)ccc2ccccc12 (stereo unspecified),–,inconclusive: 14.6%
Cc1nnc(NC(=O)c2ccc3ccccc3c2)s1,–,inconclusive: 14.9%
CC12COC3(C(=O)Nc4nccs4)CC1CCC32C (stereo unspecified),–,inactive
COc1ccc(CNS(=O)(=O)c2c(C(=O)N3CCCCCC3)c(C)n(C)c2C)cc1,–,inconclusive: 22.4%
Cc1ccc([C@@H]2[C@@H]3C(=O)N(c4ccccc4)C(=O)[C@@H]3[C@]3(C)C(=O)N(CC4CC4)CC(=O)N23)o1,"inconclusive: 0.517 µM [activator, single point]",–
CCc1ccc(CN(C)Cc2nc(-c3cccc(Cl)c3)no2)nc1,"inconclusive: 0.0082 µM [falling, full curve]",–
CCn1c(SCc2ccc(C(=O)O)cc2)nnc1-c1ccc(Cl)cc1,"inconclusive: 18.4 µM [falling, single point]",–
COCCNC(=O)c1cc(-c2ccccc2)n(CC2CC(c3ccc(OC)cc3)=NO2)n1 (stereo unspecified),–,inconclusive: 1.58%

Structure (SMILES),Potency,"lipid storage change, negative = inhibition"
COc1ccccc1COC(=O)c1ccc(S(=O)(=O)N2CCOCC2)cc1,–,inactive
COc1ccc2oc(C(=O)OCC(=O)N(Cc3ccccc3)C(C)C)c(C)c2c1,–,inconclusive: -90.3%
COc1ccc2c(c1)CCc1c-2n[nH]c1C(=O)NCCC(C)C,"inconclusive: 29.1 µM [cytotoxic, single point]",–
NS(=O)(=O)c1ccc(NS(=O)(=O)c2cccs2)cc1,"inconclusive: 29.1 µM [falling, single point]",–
O=C(CN1C(=O)c2ccccc2S1(=O)=O)NC1CC2CCC1C2 (stereo unspecified),–,inconclusive: 3.82%
COc1ccc(C)c(NC(=O)NCCc2cnc[nH]2)c1,–,inconclusive: 14.9%
COCC(C)NC(=O)NC(=O)c1ccc(Cl)cc1 (stereo unspecified),"inconclusive: 2.06 µM [falling, partial curve]",–
Cc1ccc(-n2nnnc2CN2CCCCC2)cc1,–,inconclusive: -20.9%
COc1cccc(NC(=S)NCCc2ccccn2)c1,–,inconclusive: -38.8% [cytotoxic] [at 0.369 µM]
O=C(NCCc1ccc(Cl)cc1)c1ccc(=O)[nH]c1,"inconclusive: 3.66 µM [activator, partial curve]",–
Cc1ccc(S(=O)(=O)N(Cc2cccnc2)Cc2cc3ccccc3[nH]c2=O)cc1,–,inconclusive: 14.7%
CN1CCN(C(=O)C2=C[C@H](c3csc4ccccc34)C[C@H](OCCCCO)O2)CC1,–,inconclusive: 6%
CCOc1ccc(/C=N/Nc2cc(N3CCOCC3)nc(C)n2)c(O)c1,"inconclusive: 18.4 µM [activator, single point]",–
Cc1ccc(/C=C2\CCC3=C2OC(N)=C(C#N)C3c2ccc(C)cc2)cc1 (stereo unspecified),"inconclusive: 29.1 µM [falling, single point]",–
CC(C)(C)c1ccc(C(=O)N2CCCC2c2cccs2)cc1 (stereo unspecified),"inconclusive: 0.58 µM [activator, single point]",–
COc1ccc(C2=NOC(C(=O)Nc3cc(C)nn3-c3ccccc3)C2)cc1OC (stereo unspecified),"inconclusive: 5.17 µM [activator, single point]",–
Cc1cnc(NC(=O)c2ccc(OCC3CCCO3)cc2)s1 (stereo unspecified),–,inconclusive: 58%
CN(C)c1nc(NC(C)(C)C)nc(SCC(=O)Nc2ccccc2)n1,–,inconclusive: -11.1%
C=CCOc1ccccc1NC(=O)CN1C(=O)CNC1=O,"inconclusive: 6.51 µM [falling, partial curve, poor fit]",–
CN(C(=O)CSc1nnc(-c2ccc3c(c2)OCO3)o1)C1CCS(=O)(=O)C1 (stereo unspecified),"inconclusive: 0.164 µM [activator, full curve, poor fit]",–
CCOc1nc(C)ccc1-c1noc(-c2ccco2)n1,"inconclusive: 4.61 µM [activator, single point]",–
Cc1ccc(S(=O)(=O)N(C)c2ccc(C(=O)Nc3cccnc3)cc2)cc1,–,inconclusive: -67.7%
COc1ccc(C(=O)NC2CCN(C(=S)Nc3ccccc3)CC2)cc1,–,inconclusive: 25.5%

# Four structures out of the list, arranged by SMILES length, largest number first:
Structure (SMILES),Potency,"lipid storage change, negative = inhibition"
CN(C(=O)CSc1nnc(-c2ccc3c(c2)OCO3)o1)C1CCS(=O)(=O)C1 (stereo unspecified),"inconclusive: 0.164 µM [activator, full curve, poor fit]",–
O=C(CN1C(=O)c2ccccc2S1(=O)=O)NC1CC2CCC1C2 (stereo unspecified),–,inconclusive: 3.82%
CC(C)(C)c1ccc(C(=O)N2CCCC2c2cccs2)cc1 (stereo unspecified),"inconclusive: 0.58 µM [activator, single point]",–
COc1ccc(C)c(NC(=O)NCCc2cnc[nH]2)c1,–,inconclusive: 14.9%
